By UniProt entry, the sequences of proteins in these tests, tags left out.
UniProt Q15004: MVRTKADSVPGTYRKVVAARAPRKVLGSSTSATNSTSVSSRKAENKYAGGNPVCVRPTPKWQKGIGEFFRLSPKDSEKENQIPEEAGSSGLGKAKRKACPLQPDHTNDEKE

In PMC11222446:

Molecular target: Human recombinant PCLAF (PCNA clamp-associated factor), His-labeled (human) (UniProt Q15004)
Assay: affinity purification with mass spectrometry; membrane protein extract of bone marrow adipocytes incubated with His-labeled rPCLAF and His antibody overnight at 4 °C; Protein A/G magnetic beads 2 h at room temperature; SDS-PAGE, then MS; only the target purified

binding: binds
B1: ADGRL2 (adhesion Class G-protein-coupled receptor, formerly termed latrophilin 2), endogenous in bone marrow adipocytes (receptor, UniProt Q8JZZ7 26-1487)
chain: FSRAALPFGLVRRELSCEGYSIDLRCPGSDVIMIESANYGRTDDKICDADPFQMENTDCYLPDAFKIMTQRCNNRTQCIVVTGSDVFPDPCPGTYKYLEVQYECVPYSKMLVFVCPGTLKAIVDSPCIYEAEQKSGAWCKDPLQAADKIYFMPWTPYRTDTLIEYASLEDFQNSRQTTTYKLPNRVDGTGFVVYDGAVFFNKERTRNIVKFDLRTRIKSGEAIINYANYHDTSPYRWGGKTDIDLAVDENGLWVIYATEQNNGMIVISQLNPYTLRFEATWETAYDKRAASNAFMICGVLYVVRSVYQDNESEAGKNTIDYIYNTRLSRGEYVDVPFPNQYQYIAAVDYNPRDNQLYVWNNNFILRYSLEFGPPDPAQVPTTAVTITSSAELFKTTISTTSSASQRGPVSSTAAGPQDGSRGTKPPPAVSTTKIPPVTNIFPLPERFCEALDWKGIKWPQTQRGMMVERPCPKGTRGTASYLCMASTGTWNPKGPDLSNCTSHWVNQLAQKIRSGENAASLANELAKHTKGHVFAGDVSSSVRLMEQLVDILDAQLQELKPSEKDSAGRSYNKLQKREKTCRAYLKAIVDTVDNLLRAEALESWKHMNSSEQAHTATMLLDTLEEGAFVLADNLLEPTRVSMPTENIVLEVAVLSTEGQVQDFKFPLGLKGLGSSIQLSANTVKQNSRNGLAKLVFIIYRSLGQFLSTENATIKLGADLMGRNSTIAVNSPVISVSINKESSRVYLTDPVLFTLPHIDPDNYFNANCSFWNYSERTMMGYWSTQGCKLVDTNKTRTTCACSHLTNFAILMAHREIAYKDGVHHLLLTVITWVGIVVSLVCLAICIFTFCFFRGLQSDRNTIHKNLCINLFIAEFIFLIGIDKTKYTIACPVFAGLLHFFFLAAFSWMCLEGVQLYLMLVEVFESEYSRKKYYYVAGYLFPATVVGVSAAIDYKSYGTVQACWLHVDNYFIWSFIGPVTFIILLNIIFLVITLCKMVKHSNTLKPDSSRLENINNYRVCDGYYNTDLPGYEDNKPFIKSWVLGAFALLCLLGLTWSFGLLFVNEETVVMAYLFTAFNAFQGLFIFIFHCALQKKVRKEYGKCFRHWYCCGGLPTESPHSSVKASTTRTSARYSSGTQSRIRRMWNDTVRKQSESSFISGDINSTSTLNQGMTGNYLLTNPLLRPHGTNNPYNTLLAETVVCNAPSAPAFNSPGHSLNNARDTSAMDTLPLNGNFNNSYSLRKADYHDGVQVVDCGLSLNDTAFEKMIISELVHNNLRGGNKTHNLELKLPVKPVIGGSSSEDDAIVADASSLMHGDNPGLEFRHKELEAPLIPQRTHSLLYQPQKKVKPEATDSYVSQLTAEADDHLQSPNRDSLYTSMPNLRDSPYPESSPDMAEDLSPSRRSENEDIYYKSMPNLGAGRHLHMCYQISRGNSDGYIIPINKEGCIPEGDVREGQMQLVTSL

These are yes or no findings as the source states them, for the method shown. In cells and extracts the contact can be indirect. These calls come from enrichment with a bait or labelling near it, and not all partners need be listed.
